Where a name gives a salt, the structure may show the parent alone. The list shows a part of the results. Most entries show no effect beyond the scatter of the controls.

What all share (details): 5 µM; treatment: days 7-14 after plating, readout day 21
For assay [1], the system named is hPSC-derived cortical neurons (WA09). Briefly: nucleus area z-score vs screen plate; higher = larger nuclei (more mature).
For assay [2] the test system is unchanged. The assay can be described thus: total neurite length per nucleus (MAP2) z-score; higher = more neurite growth.
The test system is the same in assay [3]. Briefly: nucleus roundness z-score vs screen plate; higher = rounder nuclei (more mature).
The test system is the same in assay [4]. Briefly: KCl-induced FOS+/EGR-1+ double-positive nuclei fraction z-score (KCl minus unstimulated); higher = stronger activity-induced IEG response.

`O=C(Oc1ccc([N+](=O)[O-])cc1)N1CCC(C(O)(c2ccc3c(c2)OCO3)c2ccc3c(c2)OCO3)CC1`: the nucleus area z-score in assay [1] is -0.0244. The “total neurite length per nucleus (z-score)” value in assay [2] came out at 0.462. In assay [3], this compound registered a nucleus roundness z-score of 0.332. Also, the “KCl-induced FOS+/EGR-1+ double-positive nuclei fraction z-score” value in assay [4] is 0.652.

`CCN(C)C(=O)Oc1cccc([C@H](C)N(C)C)c1` [Rivastigmine] gave a nucleus area z-score in assay [1] of 0.165. Also, the “total neurite length per nucleus (z-score)” value in assay [2] is 1.15. Besides, the nucleus roundness z-score in assay [3] was 0.242. Also, the “KCl-induced FOS+/EGR-1+ double-positive nuclei fraction z-score” value in assay [4] was -0.00171.

Consider `Nc1ncnc2c1ccn2[C@@H]1O[C@H](CO)[C@@H](O)[C@H]1O` [Tubercidin], for which, in assay [1], the nucleus area z-score was -19.2. Also, in assay [2], the “total neurite length per nucleus (z-score)” value is -6.63. Moreover, the nucleus roundness z-score in assay [3] is -2.96. Besides, the “KCl-induced FOS+/EGR-1+ double-positive nuclei fraction z-score” value in assay [4] is -1.3.

For the compound `Oc1cc(Cl)ccc1Oc1ccc(Cl)cc1Cl` [Triclosan], the nucleus area z-score in assay [1] is -0.188. Moreover, the “total neurite length per nucleus (z-score)” value in assay [2] is -0.0206. Further, the nucleus roundness z-score in assay [3] amounted to 0.0801. In assay [4], the “KCl-induced FOS+/EGR-1+ double-positive nuclei fraction z-score” value came out at 0.328.

As for `CN1CCN(c2nc3ccccc3nc2Cl)CC1`, in assay [1], the nucleus area z-score is -0.0267. For the same compound, in assay [2], the “total neurite length per nucleus (z-score)” value was -0.429. In addition, in assay [3], the nucleus roundness z-score is 0.0328. For the same compound, the “KCl-induced FOS+/EGR-1+ double-positive nuclei fraction z-score” value in assay [4] is -0.308.

For `C=C[C@H]1CN2CC[C@H]1C[C@H]2[C@H](O)c1ccnc2ccccc12` [Cinchonidine], the nucleus area z-score in assay [1] was determined as 0.177. In addition, the “total neurite length per nucleus (z-score)” value in assay [2] was 1.58. The nucleus roundness z-score in assay [3] is -0.0105. Also, in assay [4], the “KCl-induced FOS+/EGR-1+ double-positive nuclei fraction z-score” value was 0.306.

`C[C@]12CCC(=O)C(O)=C1CC[C@@H]1[C@@H]2CC[C@]2(C)C(=O)CC[C@@H]12` [Formestane] gave a nucleus area z-score in assay [1] of 0.585. In assay [2], the “total neurite length per nucleus (z-score)” value amounted to 0.349. This compound returned a nucleus roundness z-score in assay [3] of 0.00687. Moreover, in assay [4], the “KCl-induced FOS+/EGR-1+ double-positive nuclei fraction z-score” value is 1.08.

For the compound `CN1[C@@H]2CC[C@H]1C[C@@H](OC(=O)[C@H](CO)c1ccccc1)C2` [Hyoscyamine], the nucleus area z-score in assay [1] is -15.3. For the same compound, the “total neurite length per nucleus (z-score)” value in assay [2] was -4.69. In addition, the nucleus roundness z-score in assay [3] was -7.03. Also, the “KCl-induced FOS+/EGR-1+ double-positive nuclei fraction z-score” value in assay [4] was -0.843.

In the case of `C[C@@H]1O[C@@H](O[C@H]2C[C@@H](O)[C@]3(CO)[C@H]4[C@H](O)C[C@]5(C)[C@@H](C6=CC(=O)OC6)CC[C@]5(O)[C@@H]4CC[C@]3(O)C2)[C@H](O)[C@H](O)[C@H]1O` [Ouabain], in assay [1], the nucleus area z-score is -7.31. Moreover, the “total neurite length per nucleus (z-score)” value in assay [2] is -0.302. In assay [3], the nucleus roundness z-score is -5.05. The “KCl-induced FOS+/EGR-1+ double-positive nuclei fraction z-score” value in assay [4] came out at 1.31.

In assay [1], `CNCC(O)c1ccc(O)cc1` (configuration not stated) [Synephrine HCl] yielded a nucleus area z-score of 0.799. In addition, in assay [2], the “total neurite length per nucleus (z-score)” value stood at 1.95. In assay [3], this compound returned a nucleus roundness z-score of 1.08. Further, the “KCl-induced FOS+/EGR-1+ double-positive nuclei fraction z-score” value in assay [4] was 1.49.

For `C[C@]12CC[C@H]3[C@@H](CC[C@@]45O[C@@H]4C(O)=C(C#N)C[C@]35C)[C@@H]1CC[C@@H]2O` [Trilostane], the nucleus area z-score in assay [1] was determined as 0.00479. The “total neurite length per nucleus (z-score)” value in assay [2] came to 1.18. Besides, in assay [3], the nucleus roundness z-score is -0.383. The “KCl-induced FOS+/EGR-1+ double-positive nuclei fraction z-score” value in assay [4] is -0.173.

Compound `C=C1C[C@@H]2[C@H](CC[C@]3(C)C(=O)CC[C@@H]23)[C@@]2(C)C=CC(=O)C=C12` [Exemestane] returned a nucleus area z-score in assay [1] of 2.35. Further, the “total neurite length per nucleus (z-score)” value in assay [2] was determined as 0.49. Moreover, the nucleus roundness z-score in assay [3] is 0.782. Moreover, in assay [4], the “KCl-induced FOS+/EGR-1+ double-positive nuclei fraction z-score” value came to 1.66.

As for `O=c1ccc2cc(O[C@@H]3O[C@H](CO)[C@@H](O)[C@H](O)[C@H]3O)c(O)cc2o1` [Esculin], in assay [1], the nucleus area z-score is 0.185. Further, the “total neurite length per nucleus (z-score)” value in assay [2] came to 0.0962. The same compound yielded a nucleus roundness z-score in assay [3] of 0.484. Besides, the “KCl-induced FOS+/EGR-1+ double-positive nuclei fraction z-score” value in assay [4] was 0.0257.

The compound `COc1ccc(N(C(=O)Oc2c(C)cccc2C)c2ccnc(Nc3ccc(N4CCN(C)CC4)cc3)n2)c(OC)c1` showed a nucleus area z-score in assay [1] of 0.537. Also, the “total neurite length per nucleus (z-score)” value in assay [2] turned out to be 1.3. In assay [3], this compound yielded a nucleus roundness z-score of 0.222. In addition, the “KCl-induced FOS+/EGR-1+ double-positive nuclei fraction z-score” value in assay [4] was -0.375.

In turn, `NCC1(CC(=O)O)CCCCC1` [Gabapentin] returned a nucleus area z-score in assay [1] of 2.93. For the same compound, the “total neurite length per nucleus (z-score)” value in assay [2] is -0.619. In addition, the nucleus roundness z-score in assay [3] is -0.185. The “KCl-induced FOS+/EGR-1+ double-positive nuclei fraction z-score” value in assay [4] is -0.372.

For the compound `COc1ccc(C[C@H]2NC[C@H](O)[C@H]2OC(C)=O)cc1` [Anisomycin], the nucleus area z-score in assay [1] was -15.3. Also, the “total neurite length per nucleus (z-score)” value in assay [2] was -5.28. Besides, the nucleus roundness z-score in assay [3] was -6.57. In addition, the “KCl-induced FOS+/EGR-1+ double-positive nuclei fraction z-score” value in assay [4] is -1.29.

Compound `NCC(O)c1ccc(O)cc1` (configuration not stated) [(+_-)-Octopamine HCl] registered a nucleus area z-score in assay [1] of 0.121. In addition, the “total neurite length per nucleus (z-score)” value in assay [2] was 1.24. In addition, the nucleus roundness z-score in assay [3] stood at 1.13. The “KCl-induced FOS+/EGR-1+ double-positive nuclei fraction z-score” value in assay [4] was 0.284.

With `O=c1cccc2n1C[C@@H]1CNC[C@H]2C1` [Cytisine], the nucleus area z-score in assay [1] came out at 1.82. In addition, the “total neurite length per nucleus (z-score)” value in assay [2] is -1.88. The nucleus roundness z-score in assay [3] is -1.39. Further, the “KCl-induced FOS+/EGR-1+ double-positive nuclei fraction z-score” value in assay [4] was -1.09.

On to `CCOC(=O)c1cncn1[C@H](C)c1ccccc1` [Etomidate], for which the nucleus area z-score in assay [1] came to 0.926. Besides, in assay [2], the “total neurite length per nucleus (z-score)” value is -0.587. Also, the nucleus roundness z-score in assay [3] was -0.495. The “KCl-induced FOS+/EGR-1+ double-positive nuclei fraction z-score” value in assay [4] is -0.314.

On to `Cn1c(COP(=O)(NCCBr)NCCBr)cnc1[N+](=O)[O-]`, for which, in assay [1], the nucleus area z-score was -0.331. For the same compound, the “total neurite length per nucleus (z-score)” value in assay [2] was 1.85. Also, in assay [3], the nucleus roundness z-score worked out at 1.27. Also, in assay [4], the “KCl-induced FOS+/EGR-1+ double-positive nuclei fraction z-score” value came out at 0.399.

With `NC(=O)c1cc(N2CC2)c([N+](=O)[O-])cc1[N+](=O)[O-]`, in assay [1], the nucleus area z-score is 0.27. In addition, the “total neurite length per nucleus (z-score)” value in assay [2] came out at 0.145. Besides, the nucleus roundness z-score in assay [3] stood at 0.244. Also, in assay [4], the “KCl-induced FOS+/EGR-1+ double-positive nuclei fraction z-score” value is -0.0616.

Regarding `Cc1sc2c(c1C)C(c1ccc(Cl)cc1)=N[C@@H](CC(=O)OC(C)(C)C)c1nnc(C)n1-2`, in assay [1], the nucleus area z-score is -8.44. In assay [2], the “total neurite length per nucleus (z-score)” value is -1.72. In assay [3], the nucleus roundness z-score is -3.95. Further, in assay [4], the “KCl-induced FOS+/EGR-1+ double-positive nuclei fraction z-score” value is -0.169.

As for `O=c1[nH]c2ccccc2n1C1CCN(CCCC(c2ccc(F)cc2)c2ccc(F)cc2)CC1` [Pimozide], the nucleus area z-score in assay [1] was -3.85. The “total neurite length per nucleus (z-score)” value in assay [2] is -2.07. Moreover, the nucleus roundness z-score in assay [3] is -3.76. Also, the “KCl-induced FOS+/EGR-1+ double-positive nuclei fraction z-score” value in assay [4] was -0.619.

In assay [1], `OCC(Br)(Br)Br` [2,2,2-Tribromoethanol] came in with a nucleus area z-score of 1.43. Further, the “total neurite length per nucleus (z-score)” value in assay [2] amounted to 1.17. Further, the nucleus roundness z-score in assay [3] stood at 1.2. For the same compound, the “KCl-induced FOS+/EGR-1+ double-positive nuclei fraction z-score” value in assay [4] came out at 1.53.

As to `CC(C)NCC(O)c1ccccc1Cl` (configuration not stated) [Clorprenaline HCl], the nucleus area z-score in assay [1] is 0.705. Besides, the “total neurite length per nucleus (z-score)” value in assay [2] was found to be 0.458. Moreover, the nucleus roundness z-score in assay [3] came to 0.416. Moreover, the “KCl-induced FOS+/EGR-1+ double-positive nuclei fraction z-score” value in assay [4] is 2.26.

On to `CN1[C@@H]2CC[C@H]1C[C@@H](OC(=O)C(CO)c1ccccc1)C2` (some centres not stated) [Atropine], for which the nucleus area z-score in assay [1] was -1.28. Further, the “total neurite length per nucleus (z-score)” value in assay [2] worked out at 0.0538. For the same compound, in assay [3], the nucleus roundness z-score stood at 1.27. The “KCl-induced FOS+/EGR-1+ double-positive nuclei fraction z-score” value in assay [4] amounted to 0.4.

In the case of `CCN(Cc1ccc(Cl)nc1)/C(=C/[N+](=O)[O-])NC` [Nitenpyram], the nucleus area z-score in assay [1] came to 1.13. The “total neurite length per nucleus (z-score)” value in assay [2] came to 0.843. This compound registered a nucleus roundness z-score in assay [3] of 0.28. Further, in assay [4], the “KCl-induced FOS+/EGR-1+ double-positive nuclei fraction z-score” value was 0.487.

As to `Fc1cc(F)c2c(c1)[C@H]1C=CC[C@H]1C(c1cccnc1)N2` (some centres not stated) [Golgicide A], the nucleus area z-score in assay [1] is -4.77. For the same compound, the “total neurite length per nucleus (z-score)” value in assay [2] is -0.644. Further, the nucleus roundness z-score in assay [3] is -6.98. Moreover, in assay [4], the “KCl-induced FOS+/EGR-1+ double-positive nuclei fraction z-score” value is -0.213.

(Values after the supplement of paper PMC11348887.)
